Laboratory results published in PMC10272126.

By UniProt entry, the sequences of proteins in these tests, tags left out. Where a name states a change or a piece, a line headed by the entry shows the natural chain unless it says otherwise.
UniProt Q8WXI2: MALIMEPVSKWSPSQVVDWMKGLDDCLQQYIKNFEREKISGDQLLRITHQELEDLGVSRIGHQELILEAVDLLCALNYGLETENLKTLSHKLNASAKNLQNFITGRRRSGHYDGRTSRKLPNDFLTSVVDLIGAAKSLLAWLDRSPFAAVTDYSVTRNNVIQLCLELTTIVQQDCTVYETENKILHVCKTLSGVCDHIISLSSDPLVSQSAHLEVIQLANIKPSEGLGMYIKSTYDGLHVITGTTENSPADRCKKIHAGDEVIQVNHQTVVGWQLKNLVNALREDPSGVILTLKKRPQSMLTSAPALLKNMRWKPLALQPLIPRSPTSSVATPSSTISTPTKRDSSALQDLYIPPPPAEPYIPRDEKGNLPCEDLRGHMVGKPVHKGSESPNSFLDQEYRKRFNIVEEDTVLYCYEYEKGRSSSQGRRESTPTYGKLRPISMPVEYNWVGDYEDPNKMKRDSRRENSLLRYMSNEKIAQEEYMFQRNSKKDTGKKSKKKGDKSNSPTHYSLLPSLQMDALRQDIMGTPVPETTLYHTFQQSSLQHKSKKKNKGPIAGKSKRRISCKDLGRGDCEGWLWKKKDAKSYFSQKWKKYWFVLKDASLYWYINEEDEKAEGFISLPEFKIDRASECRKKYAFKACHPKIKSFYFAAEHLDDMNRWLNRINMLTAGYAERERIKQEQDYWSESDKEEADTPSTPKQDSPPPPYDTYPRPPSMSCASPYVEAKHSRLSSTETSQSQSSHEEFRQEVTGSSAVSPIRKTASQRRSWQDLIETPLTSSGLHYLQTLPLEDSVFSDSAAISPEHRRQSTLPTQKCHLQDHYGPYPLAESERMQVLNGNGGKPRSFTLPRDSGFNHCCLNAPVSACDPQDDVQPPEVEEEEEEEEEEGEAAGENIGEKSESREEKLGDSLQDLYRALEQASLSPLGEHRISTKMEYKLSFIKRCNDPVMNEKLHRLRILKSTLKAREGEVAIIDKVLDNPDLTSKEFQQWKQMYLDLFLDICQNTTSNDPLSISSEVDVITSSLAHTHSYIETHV
UniProt Q14160: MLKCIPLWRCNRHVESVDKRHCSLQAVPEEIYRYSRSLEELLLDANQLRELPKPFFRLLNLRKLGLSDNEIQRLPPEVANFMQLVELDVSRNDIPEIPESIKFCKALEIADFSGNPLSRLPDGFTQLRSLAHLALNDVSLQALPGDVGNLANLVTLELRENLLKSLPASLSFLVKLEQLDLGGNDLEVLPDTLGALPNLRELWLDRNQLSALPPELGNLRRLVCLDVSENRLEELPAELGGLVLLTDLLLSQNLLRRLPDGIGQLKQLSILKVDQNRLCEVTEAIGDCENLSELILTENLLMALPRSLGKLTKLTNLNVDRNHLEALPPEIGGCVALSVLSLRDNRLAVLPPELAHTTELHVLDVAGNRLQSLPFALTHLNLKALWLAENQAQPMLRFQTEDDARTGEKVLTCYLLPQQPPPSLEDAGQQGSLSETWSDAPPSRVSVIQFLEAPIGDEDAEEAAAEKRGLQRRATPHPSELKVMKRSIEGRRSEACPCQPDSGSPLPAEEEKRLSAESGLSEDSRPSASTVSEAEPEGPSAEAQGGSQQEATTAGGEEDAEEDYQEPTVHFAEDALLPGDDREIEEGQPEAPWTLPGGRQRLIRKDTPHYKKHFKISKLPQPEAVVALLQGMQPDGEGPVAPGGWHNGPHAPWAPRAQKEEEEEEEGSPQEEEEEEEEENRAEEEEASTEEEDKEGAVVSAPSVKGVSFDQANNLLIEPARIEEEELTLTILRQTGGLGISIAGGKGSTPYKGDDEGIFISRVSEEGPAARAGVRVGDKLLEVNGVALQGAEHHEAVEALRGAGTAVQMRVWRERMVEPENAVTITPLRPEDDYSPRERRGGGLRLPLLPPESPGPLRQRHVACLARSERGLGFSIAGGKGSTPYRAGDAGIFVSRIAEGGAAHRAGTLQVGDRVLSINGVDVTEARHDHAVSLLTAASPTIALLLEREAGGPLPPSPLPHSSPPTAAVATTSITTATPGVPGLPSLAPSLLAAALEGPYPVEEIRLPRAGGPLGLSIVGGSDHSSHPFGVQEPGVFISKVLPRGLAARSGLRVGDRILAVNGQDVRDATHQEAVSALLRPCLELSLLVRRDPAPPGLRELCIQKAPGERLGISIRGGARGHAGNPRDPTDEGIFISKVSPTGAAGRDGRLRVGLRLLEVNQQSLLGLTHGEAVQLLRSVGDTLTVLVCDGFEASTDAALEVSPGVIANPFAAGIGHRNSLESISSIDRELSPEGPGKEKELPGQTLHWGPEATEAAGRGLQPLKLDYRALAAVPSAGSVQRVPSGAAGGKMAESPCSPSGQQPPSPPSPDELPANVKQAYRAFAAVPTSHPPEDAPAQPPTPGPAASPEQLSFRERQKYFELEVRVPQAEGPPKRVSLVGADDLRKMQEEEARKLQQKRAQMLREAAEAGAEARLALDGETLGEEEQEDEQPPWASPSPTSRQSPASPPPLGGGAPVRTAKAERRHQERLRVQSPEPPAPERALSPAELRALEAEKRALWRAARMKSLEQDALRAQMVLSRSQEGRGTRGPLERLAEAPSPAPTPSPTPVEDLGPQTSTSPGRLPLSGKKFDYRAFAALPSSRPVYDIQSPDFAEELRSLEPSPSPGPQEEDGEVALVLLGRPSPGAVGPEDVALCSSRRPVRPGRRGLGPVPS

Molecular target: GFP-CNK2A_ΔPBM (human) (UniProt Q8WXI2)
Assay: co-IP; U2OS cells expressing GFP-CNK2A (WT or mutant); immunoblot of MAP4K4, CYTH1, CYTH2, CYTH3 or SCRIB in the precipitate

binding: no binding
Substance: SCRIB (from UniProt Q14160 1-1655)

Results are given in words; binding and its absence hold for the method and conditions named. In cells and extracts the contact can be indirect.
